# Assay results taken from the supplement of paper PMC8256030.
# Several values for one entry are separate records, joined by “and”; a condition that tells them apart may be missing. Identical values can stand only once. The list shows a part of the results. Repeats in this data set agree poorly, so a single value says little.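 HEK293T cells were given each compound shortly before transfection with a reporter in which red mCherry is followed by the SARS-CoV-2 frameshift element and then GFP in the −1 frame, so GFP appears only after frameshifting.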
# Tested on: HEK293T
# Assay: percent viability (nuclei count) relative to control; higher = more viable cells
# Settings: 10 µM; 24 h
row,SMILES,percent viability
1,CC(Oc1c(Cl)cccc1Cl)C1=NCCN1 (stereo not given),68.5%
2,Cc1ccc(S(=O)(=O)NC(=O)NN2CC3CCCC3C2)cc1 (stereo not given) [Gliclazide],233%
3,CC(N)(Cc1ccc(O)cc1)C(=O)O (stereo not drawn) [racemetirosine],197%
4,CC[C@@]1(O)C(=O)OCc2c1cc1n(c2=O)Cc2cc3c(CN(C)C)c(O)ccc3nc2-1,24.6%
5,Nc1ccc2cc3ccc(N)cc3nc2c1 [proflavine],133%
6,Nc1ccc(S(=O)(=O)Nc2nccs2)cc1 [sulfathiazole],145%
7,NC(=O)OCC(COC(N)=O)c1ccccc1 [felbamate],192%
8,CC[N+](C)(C)Cc1ccccc1Br [Bretylol],257%
9,C[N+](C)(C)CC(=O)O,414%
10,Clc1ccc2c(c1)C(N1CCNCC1)=Nc1ccccc1O2 [amoxapine],186% and 404%
11,COc1ccc(CNc2nc(N3CCC[C@H]3CO)ncc2C(=O)NCc2ncccn2)cc1Cl [avanafil],71.4%
12,NC[C@@H]1CC[C@@H](N)[C@@H](O[C@H]2[C@H](O)[C@@H](O[C@H]3O[C@H](CO)[C@@H](O)[C@H](N)[C@H]3O)[C@H](N)C[C@@H]2N)O1,127%
13,CC(=O)Nc1c(I)c(C(=O)N[C@H]2C(O)O[C@H](CO)[C@@H](O)[C@@H]2O)c(I)c(N(C)C(C)=O)c1I (stereo not given in full) [Amipaque],197% and 220%
14,CC(C)(C#N)c1cc(Cn2cncn2)cc(C(C)(C)C#N)c1 [anastrozole],130% and 331%
15,CCOc1cc(CC(=O)N[C@@H](CC(C)C)c2ccccc2N2CCCCC2)ccc1C(=O)O [repaglinide],164%
16,O=C(O)[C@@H]1CCCN1 [proline],111%
17,c1ccc([C@H]2CN3CCSC3=N2)cc1 [Levamisole],212%
18,CC(C)(Oc1ccc(C(=O)c2ccc(Cl)cc2)cc1)C(=O)O,155%
19,O=C([O-])CN1CCN(CC(=O)[O-])CCN([C@H](CO)[C@H](O)CO)CCN(CC(=O)[O-])CC1.[Gd+3] (racemic) [gadobutrol],439%
20,COCC(=O)Nc1cc(Sc2ccccc2)ccc1N=C(NC(=O)OC)NC(=O)OC [febantel],226%

row,SMILES,percent viability
1,CCN1CCN(C(=O)N[C@@H](C(=O)N[C@@H]2C(=O)N3C(C(=O)O)=C(CSc4nnnn4C)CS[C@H]23)c2ccc(O)cc2)C(=O)C1=O [Cefobid],202% and 347%
2,CC(C)(C)NC[C@H](O)COc1nsnc1N1CCOCC1,91.1%
3,COc1ccc(CN(CCN(C)C)c2ccccn2)cc1 [mepyramine],102% and 285%
4,CS(=O)(=O)OCCCCOS(C)(=O)=O [busulfan],352%
5,CC[C@]1(O)C[C@@H]2CN(CCc3c([nH]c4ccccc34)[C@@](C(=O)OC)(c3cc4c(cc3OC)N(C)[C@H]3[C@@](O)(C(=O)OC)[C@H](OC(C)=O)[C@]5(CC)C=CCN6CC[C@]43[C@@H]65)C2)C1,22.6%
6,CC(=O)NC(CC(C)C)C(=O)O (stereo not given) [acetylleucine],311%
7,CC[C@H](C)[C@H](N)C1=N[C@H](C(=O)N[C@@H](CC(C)C)C(=O)N[C@H](CCC(=O)O)C(=O)N[C@H](C(=O)N[C@H]2CCCCNC(=O)[C@H](CC(N)=O)NC(=O)[C@@H](CC(=O)O)NC(=O)[C@H](Cc3cnc[nH]3)NC(=O)[C@@H](Cc3ccccc3)NC(=O)[C@H]([C@@H](C)CC)NC(=O)[C@@H](CCCN)NC2=O)[C@@H](C)CC)CS1 [bacitracin],144%
8,CC(C)Cc1ccc(C(C)C(=O)NCCO)cc1 (stereo not given) [mabuprofen],297%
9,CN=C(N)NCCCC(N)C(=O)O (stereo not given),209%
10,CC(C)CCCC(C)N (stereo not given) [octodrine],124%
11,CC(C)(C)c1cc(/C=C2\SC(=N)NC2=O)cc(C(C)(C)C)c1O [darbufelone],170%
12,CCN(CCCCOC(=O)c1ccc(OC)c(OC)c1)C(C)Cc1ccc(OC)cc1 (stereo not given) [mebeverine],136%
13,OCCOCCN1CCN(C(c2ccccc2)c2ccccc2)CC1 [decloxizine],171%
14,CCCc1ncc(C(=O)O)s1 [tizoprolic acid],105%
15,Oc1ccc(C2CNCCc3c2cc(O)c(O)c3Cl)cc1 (stereo not given) [fenoldopam],172%
16,CCOC(=O)CCC(=O)O[C@H]1[C@H](O[C@@H]2[C@@H](C)[C@H](O[C@H]3C[C@@](C)(OC)[C@@H](O)[C@H](C)O3)[C@@H](C)C(=O)O[C@H](CC)[C@@](C)(O)[C@H](O)[C@@H](C)C(=O)[C@H](C)C[C@@]2(C)O)O[C@H](C)C[C@@H]1N(C)C,174%
17,C[N+]1(C)CCC(OC(=O)C(O)(c2ccccc2)C2CCCC2)C1 (stereo not given),120%
18,CN(C)CCCSc1ccccc1NC(=O)/C=C/c1ccccc1 [Cinanserin],297%
19,Fc1ccc([C@@H]2CCNC[C@H]2COc2ccc3c(c2)OCO3)cc1 [paroxetine],390% and 300%
20,O[C@@H]1CO[C@H]2[C@@H]1OC[C@@H]2O [isosorbide],52.9%
